{"sequences": {"note": "Chains of the proteins cited; added tags and fusions are not shown. Residues count along the entry.", "UniProt Q9JJN1, residues 29-210": "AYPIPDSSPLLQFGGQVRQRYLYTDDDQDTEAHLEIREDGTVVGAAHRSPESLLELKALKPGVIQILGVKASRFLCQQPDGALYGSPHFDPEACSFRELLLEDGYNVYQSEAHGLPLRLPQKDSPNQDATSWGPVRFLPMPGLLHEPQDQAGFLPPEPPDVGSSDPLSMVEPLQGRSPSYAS"}, "source": "patent US20100184665A1", "target": "T1, soluble betaKlotho protein (extracellular domain of betaKlotho with a V5 tag and a His tag added to the C-terminus in tandem) (mouse) (UniProt Q99N32)", "T1 sequence": "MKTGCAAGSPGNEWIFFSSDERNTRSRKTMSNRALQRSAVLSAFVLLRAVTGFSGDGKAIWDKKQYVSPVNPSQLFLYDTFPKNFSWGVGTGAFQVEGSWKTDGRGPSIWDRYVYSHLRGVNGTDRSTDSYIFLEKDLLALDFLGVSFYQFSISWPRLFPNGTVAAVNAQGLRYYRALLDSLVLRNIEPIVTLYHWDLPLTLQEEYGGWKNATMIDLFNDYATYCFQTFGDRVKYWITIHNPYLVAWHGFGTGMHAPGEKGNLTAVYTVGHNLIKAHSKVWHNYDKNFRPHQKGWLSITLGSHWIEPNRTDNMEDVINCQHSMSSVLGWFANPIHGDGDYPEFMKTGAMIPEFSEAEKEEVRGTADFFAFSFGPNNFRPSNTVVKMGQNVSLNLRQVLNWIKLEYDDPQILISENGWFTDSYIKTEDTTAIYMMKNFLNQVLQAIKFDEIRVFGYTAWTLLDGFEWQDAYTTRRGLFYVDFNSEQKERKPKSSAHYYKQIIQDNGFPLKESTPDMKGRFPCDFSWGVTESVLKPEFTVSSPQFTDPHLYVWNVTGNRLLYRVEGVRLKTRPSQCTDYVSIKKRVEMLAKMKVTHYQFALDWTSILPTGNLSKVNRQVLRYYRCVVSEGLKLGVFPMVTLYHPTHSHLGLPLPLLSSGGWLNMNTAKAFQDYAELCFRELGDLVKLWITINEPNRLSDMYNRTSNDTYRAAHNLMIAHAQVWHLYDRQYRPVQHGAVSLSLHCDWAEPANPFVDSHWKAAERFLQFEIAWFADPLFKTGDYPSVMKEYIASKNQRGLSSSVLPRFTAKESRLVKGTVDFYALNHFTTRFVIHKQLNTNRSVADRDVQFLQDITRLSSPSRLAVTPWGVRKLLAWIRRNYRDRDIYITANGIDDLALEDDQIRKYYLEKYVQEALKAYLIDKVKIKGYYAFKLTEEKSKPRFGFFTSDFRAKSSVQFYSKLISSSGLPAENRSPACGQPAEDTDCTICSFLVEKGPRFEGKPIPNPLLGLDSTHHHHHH", "test": "co-precipitation with anti-V5 tag antibody-immobilized beads, immunoblot for FGF21, with or without heparin", "note": "Results are given in words; binding and its absence hold for the method and conditions named. Binding seen in cells or lysates may run through a third protein. Some results given as binding are weak or reduced against the parent protein; the word gives no strength. Where a sequence is shown, tags or fusion partners need not be part of it.", "data": [{"substance": "FGF21 (mouse-derived) (from UniProt Q9JJN1 29-210) (ligand)", "values": [{"measurement": "binding", "value": "binds"}]}]}
